In patent US20160208004A1 one finds binding data, which are given here for one molecule.

Sequences of proteins named here, by UniProt entry; tags and fusion partners are left off. Residues count along the entry.
UniProt Q96F46, residues 33-320: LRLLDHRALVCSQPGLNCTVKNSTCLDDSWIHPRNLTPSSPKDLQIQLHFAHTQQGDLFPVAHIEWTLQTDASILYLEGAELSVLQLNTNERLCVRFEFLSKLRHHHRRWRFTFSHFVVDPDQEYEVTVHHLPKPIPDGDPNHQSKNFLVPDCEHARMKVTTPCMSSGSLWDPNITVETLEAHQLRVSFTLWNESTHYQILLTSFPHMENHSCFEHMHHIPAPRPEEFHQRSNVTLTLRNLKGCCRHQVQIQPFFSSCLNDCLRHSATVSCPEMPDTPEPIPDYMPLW

The target in test [1] is IL-17RA.HIS (extracellular domain of human IL-17RA fused to a polyhistidine tag) (human) (UniProt Q96F46). As to the kind of experiment: co-immunoprecipitation on Protein G beads, Western blot. For orientation: In western blotting, separated proteins are transferred to a membrane and probed.
For test [2] the target is unchanged. The test can be described thus: co-immunoprecipitation, Western blot with anti-IL-17RA (FIG. 2).

No constants are given. Whether binding was seen depends on the method and setting. In cells and extracts the contact can be indirect. Some entries that bind do so weakly or less than the wild type. Where a sequence is shown, tags or fusion partners need not be part of it.

B1: IL-17RB.Fc (extracellular domain of human IL-17RB fused to the Fc region of human IgG) (Fc fusion, UniProt Q9NRM6 18-292, looked up, not shown: a dimerising Fc or GST)
chain: REPTVQCGSETGPSPEWMLQHDLIPGDLRDLRVEPVTTSVATGDYSILMNVSWVLRADASIRLLKATKICVTGKSNFQSYSCVRCNYTEAFQTQTRPSGGKWTFSYIGFPVELNTVYFIGAHNIPNANMNEDGPSMSVNFTSPGCLDHIMKYKKKCVKAGSLWDPNITACKKNEETVEVNFTTTPLGNRYMALIQHSTIIGFSQVFEPHQKKQTRASVVIPVTGDSEGATVQLTPYFPTCGSDCIRHKGTVVLCPQTGVPFPLDNNKSKPGGWLP
On to B1, for which the binding entry in test [1] and in test [2] was “binds” each time.
